Assay [1] addresses D1 dopamine receptor wild type, Rluc8-tagged (D1R-Rluc8) (rat) (UniProt P18901). The experiment in a line: FRET or BRET; direct β-arrestin recruitment BRET in live HEK293 cells co-transfected with D1R-Rluc8 and β-arrestin2-mVenus; DPBS, room temperature; 5 µM coelenterazine h 5 min, then dopamine 5 min; Emax as percent of the maximum D1R WT dopamine response.
Assay [2] addresses D1R GRK-null mutant (rat) (UniProt P18901). The assay is described as above.

Amino acid sequences for entries named in this document (tags omitted). A change or cut given only in a name is not applied to a line headed by its entry. Chains listed by the source or under a name are the forms on record and can include a tag or linker.
UniProt P18901: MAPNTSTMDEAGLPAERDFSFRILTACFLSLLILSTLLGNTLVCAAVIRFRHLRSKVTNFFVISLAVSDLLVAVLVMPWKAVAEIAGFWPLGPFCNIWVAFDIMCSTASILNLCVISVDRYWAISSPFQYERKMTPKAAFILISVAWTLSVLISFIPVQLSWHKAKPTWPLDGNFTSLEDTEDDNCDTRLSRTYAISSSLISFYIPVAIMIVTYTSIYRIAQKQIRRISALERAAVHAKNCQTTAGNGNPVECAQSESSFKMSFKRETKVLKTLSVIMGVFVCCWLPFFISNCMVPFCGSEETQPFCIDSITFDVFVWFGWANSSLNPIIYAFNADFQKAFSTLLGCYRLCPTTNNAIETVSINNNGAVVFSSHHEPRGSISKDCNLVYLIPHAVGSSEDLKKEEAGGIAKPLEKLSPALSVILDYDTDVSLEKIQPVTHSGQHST
D1R GRK-null mutant (P18901, form named): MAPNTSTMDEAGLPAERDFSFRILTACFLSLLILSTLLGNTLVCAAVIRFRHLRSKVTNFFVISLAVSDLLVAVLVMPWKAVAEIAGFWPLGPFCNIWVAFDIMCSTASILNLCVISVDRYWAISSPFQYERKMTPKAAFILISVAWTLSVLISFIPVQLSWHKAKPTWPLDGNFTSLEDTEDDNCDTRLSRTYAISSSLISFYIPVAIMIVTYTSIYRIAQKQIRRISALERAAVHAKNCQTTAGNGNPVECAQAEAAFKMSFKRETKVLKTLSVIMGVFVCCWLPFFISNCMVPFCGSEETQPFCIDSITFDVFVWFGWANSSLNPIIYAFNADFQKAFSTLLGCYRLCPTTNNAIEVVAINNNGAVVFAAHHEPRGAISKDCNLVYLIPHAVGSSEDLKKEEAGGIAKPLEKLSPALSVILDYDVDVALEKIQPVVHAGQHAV

No constants are given. Whether binding was seen depends on the method and setting. In cells and extracts the contact can be indirect. Some binding calls cover weakened binding; strength is not graded here.

The source of these data is paper PMC10095280.

Take “β-arrestin2-mVenus (from UniProt P32121 1-409)”: the figures for the binding entry in assay [1] and in assay [2] were “binds” and “no binding”, respectively.
